Positions count from the first letter of the chain named. These are yes or no findings as the source states them, for the method shown. Some results given as binding are weak or reduced against the parent protein; the word gives no strength.
Experiments:
[1] = target: Amyloid Beta (antigen of the Amyloid Beta ELISA) (UniProt P05067); experiment: Amyloid Beta ELISA, purified antibody, A405 against ng antibody per well
[2] = target: Amyloid Beta (antigen of the Amyloid Beta ELISA) (UniProt P05067); experiment: Amyloid Beta ELISA, purified antibody from NS0 cells
[3] = target: Amyloid Beta (antigen of the Amyloid Beta ELISA) (UniProt P05067); experiment: ELISA for binding to Amyloid Beta, conditioned medium from transient transfection
[4] = target: Amyloid Beta (antigen of the Amyloid Beta ELISA) (UniProt P05067); experiment: Amyloid Beta ELISA, conditioned medium of transiently transfected HEK293 cells, A405 against ng antibody per well
[5] = target: Amyloid Beta (antigen of the Amyloid Beta ELISA) (UniProt P05067); experiment: Amyloid Beta ELISA, purified antibodies, A405 against ng antibody per well
[6] = target: amyloid plaques in human brain sections (human) (UniProt P05067); experiment: immunohistochemistry on human brain sections
[7] = target: amyloid plaques in human brain sections (human) (UniProt P05067); experiment: immunohistochemistry, paraffin sections of human brain pretreated with formic acid
[8] = target: T1, peptide 15 (aa 15-23 of Aβ1-42); experiment: ELISA, biotinylated peptides on streptavidin plates, hC2 at 200 ng/ml
T1 sequence (peptide, biotinylated (site not stated)): QKLVFFAED

Protein sequences, listed by entry. Tags and fused reporters are not part of them. Residues count along the entry.
UniProt P05067, residues 672-713: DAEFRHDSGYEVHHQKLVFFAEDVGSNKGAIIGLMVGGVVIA

[9] = target: T2, peptide 12 (aa 12-20 of Aβ1-42); experiment: as above
T2 sequence (peptide, biotinylated (site not stated)): VHHQKLVFF

[10] = target: T3, peptide 13 (aa 13-21 of Aβ1-42); experiment: as above
T3 sequence (peptide, biotinylated (site not stated)): HHQKLVFFA

[11] = target: T4, peptide 16 (aa 16-24 of Aβ1-42); experiment: as above
T4 sequence (peptide, biotinylated (site not stated)): KLVFFAEDV

[12] = target: T5, peptide 14 (aa 14-22 of Aβ1-42); experiment: as above
T5 sequence (peptide, biotinylated (site not stated)): HQKLVFFAE

[13] = target: T3, peptide 13 (aa 13-21 of Aβ1-42); experiment: ELISA on biotinylated peptides, O.D.
[14] = target: T6, A12; experiment: peptide ELISA: biotinylated peptide on streptavidin plate, antibody 200 ng/ml, AP anti-human IgG, O.D. 405 nm
T6 sequence (peptide, biotinylated): AHHQKLVFF

[15] = target: T7, A13; experiment: as above
T7 sequence (peptide, biotinylated): VAHQKLVFF

[16] = target: T8, peptide p13-21 G21; experiment: as above
T8 sequence (peptide, biotinylated (site not stated)): HHQKLVFFG

[17] = target: T9, alanine-substituted Aβ12-20 peptide A18; experiment: as above
T9 sequence (peptide, biotinylated (site not stated)): VHHQKLAFF

[18] = target: T10, alanine-substituted Aβ12-20 peptide A15; experiment: as above
T10 sequence (peptide, biotinylated (site not stated)): VHHAKLVFF

[19] = target: T1, peptide 15 (aa 15-23 of Aβ1-42); experiment: as above
[20] = target: T11, peptide p14-22 A22; experiment: as above
T11 sequence (peptide, biotinylated (site not stated)): HQKLVFFAA

[21] = target: T2, peptide 12 (aa 12-20 of Aβ1-42); experiment: as above
[22] = target: T3, peptide 13 (aa 13-21 of Aβ1-42); experiment: as above
[23] = target: T12, alanine-substituted Aβ12-20 peptide A14; experiment: as above
T12 sequence (peptide, biotinylated (site not stated)): VHAQKLVFF

[24] = target: T4, peptide 16 (aa 16-24 of Aβ1-42); experiment: as above
[25] = target: T5, peptide 14 (aa 14-22 of Aβ1-42); experiment: as above
[26] = target: T9, alanine-substituted Aβ12-20 peptide A18; experiment: ELISA, alanine-substituted Aβ12-20 peptides, hC2 at 200 ng/ml
[27] = target: T10, alanine-substituted Aβ12-20 peptide A15; experiment: as above
[28] = target: T12, alanine-substituted Aβ12-20 peptide A14; experiment: as above
[29] = target: T8, peptide p13-21 G21; experiment: ELISA, third peptide library, hC2 at 200 ng/ml
[30] = target: T11, peptide p14-22 A22; experiment: ELISA, third peptide library, hC2 at 200 ng/ml
[31] = target: Amyloid Beta (antigen of the Amyloid Beta ELISA) (UniProt P05067); experiment: Amyloid Beta ELISA, purified antibodies from NS0 cells
[32] = target: Amyloid Beta (antigen of the Amyloid Beta ELISA) (UniProt P05067); experiment: Amyloid Beta ELISA, conditioned medium from transient transfection

Measured: binding

B1: chimeric antibody C2 ChVH AF/ChVK (antibody, human IgG4 S228P, kappa, V domains shown)
VH: EVQLVESGGGLVQPGGSLKLSCAASGFTFSSYGMSWVRQTPDKRLELVASINSNGGSTYYPDSVKGRFTISRDNAKNTLYLQMSSLKSEDTAMYYCASGDYWGQGSTLTVSS
VL: DVVMTQTPLSLPVSLGDQASISCRSSQSLVYSNGDTYLHWYLQKPGQSPKLLIYKVSNRFSGVPDRFSGSGSGTDFTLKISRVEAEDLGVYFCSQSTHVPWTFGGGTKLEIKR
binds: [1] | [2] | [3] | [4] | [5] | [6] | [7]

B2: humanized monoclonal antibody hC2 (antibody, human IgG4 S228P, kappa, V domains shown)
VH: EVQLVESGGGLVQPGGSLRLSCAASGFTFSSYGMSWVRQAPGKGLELVASINSNGGSTYYPDSVKGRFTISRDNAKNSLYLQMNSLRAEDTAVYYCASGDYWGQGTTVTVSS
VL: DIVMTQSPLSLPVTPGEPASISCRSSQSLVYSNGDTYLHWYLQKPGQSPQLLIYKVSNRFSGVPDRFSGSGSGTDFTLKISRVEAEDVGVYYCSQSTHVPWTFGQGTKVEIKR
not listed: [1] | [2] | [3] | [4] | [5] | [6] | [7] | [31] | [32]
binds: all other assays above

B3: humanized antibody C2 HuVH2/HuVK1 (antibody, human IgG4 S228P, kappa, name in Kabat numbering, V domains shown)
VH: B2 VH with L47W
VL: B2 VL
binds: [31] | [5]

B4: humanized antibody C2 HuVH2/HuVK4 (antibody, human IgG4 S228P, kappa, name in Kabat numbering, V domains shown)
VH: B2 VH with L47W
VL: B2 VL with Q50K, Y92F
binds: [31] | [5]

B5: humanized antibody C2HuVH4/HuVK2 (antibody, human IgG4 S228P, kappa, name in Kabat numbering, V domains shown)
VH: B2 VH
VL: B2 VL with Y92F
binds: [31] | [5]

B6: VK-R antibody (mC2 VK-R with chimeric C2 VH) (antibody, V domains shown)
VH: B1 VH
VL: DVVMTQTPLSLPVSLGDQASISCRSSQSLVYSNGDTYLHWYLQKPGQSPKLLIYRVSNRFSGVPDRFSGSGSGTDFTLKISRVEAEDLGVYFCSQSTHVPWTFGGGTKLEIK
binds: [4] | [32]

B7: VK-S antibody (mC2 VK-S with chimeric C2 VH) (antibody, V domains shown)
VH: B1 VH
VL: B6 VL with R55K, N58S
binds: [4] | [32]

B8: C2 HuVH AF version 2 combined with the chimeric C2 kappa chain (antibody, name in Kabat numbering, V domains shown)
VH: B2 VH with L47W
VL: B6 VL with R55K
binds: [32]
